From publication PMC4329186

What was measured:
[1] = system: human alpha-thrombin (human); experiment: ctITP capillary electrophoresis; conditions: 200 nM DNA, 200 nM thrombin, lower signal and resolution, Tris-HCl sample buffer, no added metal ions, 30 min incubation, Tris and glycine reagents for CE, commercial protein, label: SYBR Gold (on-column, noncovalent), folded or branched DNA
[2] = system: human alpha-thrombin (human); experiment: ctITP-NECEEM capillary electrophoresis; conditions: SYBR Gold on-column label; Tris-HCl sample buffer, no added metal ions, 30 min incubation; Tris and glycine reagents for CE; commercial protein; label: SYBR Gold (on-column, noncovalent); folded or branched DNA

“CCTCTCTATGGGCAGTCGGTGATAGTCCGTGGTAGGGCAGGTTGGGGTGACTTAAGGAGTTCAATATCTGAGTCGGAGACACGCAGGGATGAGATGG”: binds ([1]; 10 mM K+); binds ([1]; 10 mM Mg2+); binds ([1]; 10 mM Na+). The Kd [2] was 124 nM.

For at least one entry, the source does not settle the construct or the ends of the probe. For some of these results: At least one verdict rests on a figure or table, not on a statement of the authors.
